Test results: article doi:10.1101/2023.09.03.556088, “Protein coopted from a phage restriction system dictates orthogonal cell division plane selection in Staphylococcus aureus” (bioRxiv, 2023)

Sequences of proteins named here, by UniProt entry; tags and fusion partners are left off. A change or cut given only in a name is not applied to a line headed by its entry.
UniProt P0A031: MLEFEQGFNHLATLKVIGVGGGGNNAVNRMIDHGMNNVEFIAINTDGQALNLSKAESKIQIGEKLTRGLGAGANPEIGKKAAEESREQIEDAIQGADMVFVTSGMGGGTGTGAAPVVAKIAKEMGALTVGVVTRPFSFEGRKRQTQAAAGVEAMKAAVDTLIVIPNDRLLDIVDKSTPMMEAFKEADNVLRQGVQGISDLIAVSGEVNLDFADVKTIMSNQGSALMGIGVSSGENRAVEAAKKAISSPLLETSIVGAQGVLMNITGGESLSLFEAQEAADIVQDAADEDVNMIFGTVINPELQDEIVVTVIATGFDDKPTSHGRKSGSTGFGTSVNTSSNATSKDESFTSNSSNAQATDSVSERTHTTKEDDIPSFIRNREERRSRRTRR
UniProt A0A0H2XHA0: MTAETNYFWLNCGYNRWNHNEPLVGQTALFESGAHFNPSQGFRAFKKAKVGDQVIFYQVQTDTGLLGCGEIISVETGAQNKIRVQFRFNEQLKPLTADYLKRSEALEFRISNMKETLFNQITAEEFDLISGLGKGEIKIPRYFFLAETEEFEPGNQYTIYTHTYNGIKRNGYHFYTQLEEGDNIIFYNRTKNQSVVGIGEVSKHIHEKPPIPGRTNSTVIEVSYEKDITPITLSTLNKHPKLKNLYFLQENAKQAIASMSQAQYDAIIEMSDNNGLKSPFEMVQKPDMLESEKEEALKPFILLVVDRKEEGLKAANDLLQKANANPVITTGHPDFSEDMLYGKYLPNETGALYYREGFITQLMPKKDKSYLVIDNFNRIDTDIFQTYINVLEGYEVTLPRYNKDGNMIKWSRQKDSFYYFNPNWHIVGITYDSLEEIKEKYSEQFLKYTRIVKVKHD

Tests used:
[1] = target: FtsZ (purified recombinant untagged S. aureus FtsZ) (S. aureus) (UniProt P0A031); assay: filter retention assay; without ATP, no GTP; 30 μM FtsZ and PcdA (5 μM in the legend, 10 μM in the methods) in reaction buffer, 15 min at room temperature; 100 kDa filter, 21,000 × g 10 min; flowthrough and retained fraction on SDS-PAGE, Coomassie; both purified
[2] = target: FtsZ (purified recombinant untagged S. aureus FtsZ) (S. aureus) (UniProt P0A031); assay: co-sedimentation; with 2 mM GMPCPP; 30 μM FtsZ with or without PcdA (5 μM in the legend, 10 μM in the methods); 20 mM HEPES pH 7.5, 140 mM KCl, 5 mM MgCl2; 10 min at 37 °C, then 30 min at 129,000 × g; supernatant and pellet on SDS-PAGE, Coomassie; both purified
[3] = target: FtsZ (purified recombinant untagged S. aureus FtsZ) (S. aureus) (UniProt P0A031); assay: filter retention assay; with 2 mM ATP, no GTP; 30 μM FtsZ and PcdA (5 μM in the legend, 10 μM in the methods) in reaction buffer, 15 min at room temperature; 100 kDa filter, 21,000 × g 10 min; flowthrough and retained fraction on SDS-PAGE, Coomassie; both purified

binding [1]: no binding (only without ATP) | binding [2]: binds | binding [3]: binds
Substance: PcdA (purified untagged recombinant) (from UniProt A0A0H2XHA0)

Results are given in words; binding and its absence hold for the method and conditions named. For part of these data: Binding calls can cover weak binding; strength is not graded here.
